In PubChem BioAssay AID1347075 (National Center for Advancing Translational Sciences (NCATS), 2019):
About 5,500 (1.4%) of roughly 400,000 compounds were called active. The inconclusive results got no clear call from the source; some entries with a clear call stand among them for comparison. The call rests on the fitted dose curve; in most records, active means well fitted cell-killing curve with a large enough effect; inconclusive means small, poorly fitted or top-dose-only effect, or effect the other way; inactive means flat fitted curve, though single readings scatter. Where the call is inconclusive, the potency comes from a doubtful curve fit.

assay: qHTS assay for MDR1-selective chemotherapeutics: Primary screen using the parental adenocarcinoma cell KB-3-1; settings: KB-3-1 viability, CellTiter-Glo ATP luminescence, 72 h; activity change, negative = cytotoxic: at 46.1 µM (top of the series); further: nearly all actives have a fitted effect of over 60% in size
Method in brief: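 Cytotoxicity in the drug-sensitive parental line KB-3-1 was scored as loss of CellTiter-Glo luminescence following 72 h incubation with compound. Values come from curve fitting of normalized concentration-response data.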
On the % scale 0 is the no-effect control and ±100 the full control effect; potency means the concentration at half of the fitted maximal effect.

SMILES	Potency	activity change, negative = cytotoxic
Cc1nn(Cc2ccc(F)cc2)c(C)c1NC(=O)c1cc(CC(C)C)on1	inconclusive: 29.1 µM [cytotoxic, single point]	
CN(CC(=O)Nc1c(Cl)cccc1Cl)C(=O)C1CCN(C(=O)Nc2ccccc2)CC1		inactive: 0.144%
CCc1ccc(-c2csc(NC(=O)C3=COCCO3)n2)cc1	inconclusive: 10.3 µM [cytotoxic, partial curve, poor fit]	
COc1ccc(CN(C)CCCn2ccc(N)nc2=O)cc1OC	inconclusive: 10.3 µM [rising, partial curve, poor fit]	
O=C(c1cc(-c2cccc3ccccc23)nc2ccccc12)N1CCN(CCO)CC1		inactive: -6.08%
N#CC1=C(SCC(=O)c2ccc(Cl)cc2)NC2=C(C(=O)CCC2)C1c1ccco1 (stereo not drawn)	inconclusive: 23.1 µM [cytotoxic, single point]	
COCCNc1nnc(SCC(=O)Nc2sc3c(c2C(=O)c2ccccc2)CCCC3)s1	inconclusive: 18.4 µM [cytotoxic, partial curve]	
O=[N+]([O-])c1ccc(Cl)c(S(=O)(=O)/N=C(/Sc2ccc(Br)cc2)c2ccccc2)c1	inconclusive: 18.4 µM [rising, single point]	
O=c1[nH]c(-c2ccccc2)ncc1Oc1ccccc1		inactive: 7.18%
COc1cccc(C=NNc2nnc(NN=Cc3cccc(OC)c3OC)c3ccccc23)c1OC	inconclusive: 2.59 µM [rising, full curve, poor fit]	
O=S(=O)(NCCc1nnc2ccc(SCc3ccc(Cl)cc3Cl)nn12)c1ccccc1	inconclusive: 29.1 µM [cytotoxic, partial curve, poor fit]	
O=C(CSc1nnc(COc2ccc(Cl)cc2)n1Cc1ccco1)c1ccccc1F		inactive: 0%
O=C(CNC(=O)C1CCCCC1)NC1CCCCC1		inactive: 9.73%
Cn1c(NC(=O)C[n+]2cc(-c3ccccc3)n3c2CCC3)cc(=O)n(C)c1=O	inconclusive: 20.6 µM [cytotoxic, single point]	
CCOc1ccc(CCNC(=O)c2ccc3c(Cl)c4c(nc3c2)CCCC4)cc1	inconclusive: 23.1 µM [cytotoxic, single point]	
O=C(NCC(F)(F)F)c1cc2c(c(-c3cccc(-c4ccccc4F)c3)n1)[C@@H](CCO)N(C(=O)CC1CC1)C2	inconclusive: 32.6 µM [cytotoxic, single point]	
O=C(Nc1ccncc1)c1ccc(Cl)c(S(=O)(=O)N2CCCC2)c1		inactive: -25.7%
CCOc1ccc(C(=O)COC(=O)Cc2n[nH]c(=O)c3ccccc23)cc1	active: 4.11 µM	
Cn1c(=O)c2c(nc(NCc3ccc4c(c3)OCO4)n2Cc2ccccc2F)n(C)c1=O	inconclusive: 29.1 µM [cytotoxic, single point]	
C=C[C@@H]1c2cc(C)ccc2N(S(=O)(=O)c2ccc(C)cc2)[C@H](c2ccc(C(=O)OC)cc2)C1(C#N)C#N		inactive: 6.39%
O=C(CSC1=Nc2ccccc2C2=NC(CC(=O)NC3CCCCC3)C(=O)N12)Nc1ccc(F)cc1 (stereo not drawn)		inactive: -3.64%
CCCCNC(=O)C1C(c2ccccc2)=Nc2ccccc2N1C(=O)c1ccc2c(c1)OCO2 (stereo not drawn)	inconclusive: 29.1 µM [cytotoxic, single point]	
O=C(NCCc1c[nH]c2ccccc12)c1cc2sccc2n1Cc1ccccc1	inconclusive: 23.1 µM [cytotoxic, single point]	

SMILES	Potency	activity change, negative = cytotoxic
O=C(Nc1cccc(-c2cnc3ccccc3n2)c1)c1cccc(NC(=O)c2ccco2)c1	inconclusive: 0.231 µM [rising, full curve, poor fit]	
CC1(C)CCC(=O)N2CC[C@H]3C[C@H](OC(=O)Nc4ccccc4)C[C@@H]1[C@H]32	inactive	
CC(C)(C)c1nc2cc(Cl)c([N+](=O)[O-])cc2o1	inconclusive: 29.1 µM [cytotoxic, single point]	
CCCn1c(SCc2ccc(Cl)cc2)nc2c1c(=O)[nH]c(=O)n2C	inconclusive: 29.1 µM [cytotoxic, single point]	
CCN(CC(=O)Nc1ccccc1OC)CC(=O)Nc1ccccc1-c1ccccc1	active: 20.6 µM	
CCOC(=O)C1CCN(Cc2cc(Cl)c3ccccc3c2O)CC1		inactive: 4.35%
CCC(=O)NCCc1nc2cc(NC(=O)c3ccccc3Cl)ccc2n1C	inconclusive: 29.1 µM [cytotoxic, single point]	
CC(C)OC(=O)c1cc(-c2ccc(C=O)o2)ccc1Cl	inconclusive: 20.6 µM [cytotoxic, partial curve, poor fit]	
COc1ccc(NC(=O)c2cccc(S(=O)(=O)N3CCCCCC3)c2)cc1	inconclusive: 23.1 µM [cytotoxic, single point]	
O=S1(=O)CCOC[C@H](c2ccccc2)N1Cc1cccc(Cl)c1	inconclusive: 25.9 µM [cytotoxic, single point]	
C[C@H]1[C@H](C)CC[C@]2(C)CC[C@]3(C)C(=CC(=O)C4[C@@]5(C)CC[C@H](O)C(C)(C)C5CC[C@]43C)[C@H]12 (stereo partly drawn)		inactive: -2.85%
COc1ccc(-n2c(SCC(=O)Nc3ccc(Cl)c(C)c3)nc3n[nH]c(C)c3c2=N)cc1		inactive: -0.218%
CC(=O)c1cc(-c2ccccc2)n(CCC(=O)NC2CCCC2)c1C		inactive: -0.376%
CCCCN(CCCC)S(=O)(=O)c1ccc(NC(=O)c2cccs2)cc1	inconclusive: 29.1 µM [cytotoxic, single point]	
Cc1cc(C)cc(-n2ccnc2SCC(=O)Nc2nnc(C)s2)c1	inconclusive: 13 µM [cytotoxic, partial curve, poor fit]	
COc1ccccc1N1CCN(C2CCCC(C)C2)CC1 (stereo not drawn)		inactive: 1.65%
COc1ccc(CN2CCNC(=O)C2CC(=O)N(C)Cc2nccs2)cc1OC (stereo not drawn)		inactive: 5.94%
CCS(=O)(=O)N1CCc2cc(C(=O)Nc3ccc(OC)c(Cl)c3)ccc21	inconclusive: 29.1 µM [cytotoxic, single point]	
O=C(CN1CCN(C(=O)CN2C(=O)NC3(CCCC3)C2=O)CC1)Nc1cccc(F)c1		inactive: 3.54%
Fc1cccc(NC(=S)NNc2c3ccccc3nc3ccccc23)c1	inconclusive: 32.6 µM [cytotoxic, partial curve, poor fit]	
Cc1cc(Oc2ccc(C#N)cc2)nc(NCc2ccccc2)n1		inactive: -8.57%
CCCc1ccc(C(C)NC(=S)NC2CCCCC2)cc1 (stereo not drawn)	inconclusive: 29.1 µM [cytotoxic, single point]	
O=S(=O)(Nc1cccc(-c2ccc(N3CCCC3)nn2)c1)c1ccccc1C(F)(F)F		inactive: 25.2%

SMILES	Potency	activity change, negative = cytotoxic
CCN(CC)S(=O)(=O)c1ccc(OC)c(NC(=O)c2cc([N+](=O)[O-])ccc2Cl)c1	active: 18.4 µM	
Cc1[nH]n(-c2ccccc2)c(=O)c1C=Nc1cccc2cccnc12	inconclusive: 29.1 µM [cytotoxic, single point]	
O=C(O)C1CCC(CNS(=O)(=O)c2ccc(Br)cc2)CC1 (stereo not drawn)	inconclusive: 29.1 µM [cytotoxic, single point]	
CC(=O)N1c2ccc(S(=O)(=O)NCC3CCC(C(=O)Nc4ncccc4C)CC3)cc2CC1C (stereo not drawn)		inactive: -7.77%
COc1ccc(N2C(=O)C(Cl)=C(Nc3ccccc3OC)C2=O)cc1		inactive: 17.2%
Cc1cc(C)c(C#N)c(Sc2nc(C)c([N+](=O)[O-])c(C)c2C#N)n1	inconclusive: 25.9 µM [cytotoxic, single point]	
COC(=O)c1cc(NC(=O)CN(c2cccc(OC)c2)S(=O)(=O)c2ccccc2)ccc1Cl	active: 16.4 µM	
COCCN(C(=O)COC(=O)c1ccccc1Oc1ccccc1)c1c(N)n(Cc2ccccc2)c(=O)[nH]c1=O	inconclusive: 29.1 µM [rising, single point]	
OCC1(CCOc2ccccc2)CCN(Cc2nc3ccc(F)cc3[nH]2)CC1		inactive: 0.442%
CCOc1cccc(CNC(=O)c2ccc(N3CCCC3)c(NC(=O)NCc3ccc(F)cc3)c2)c1		inactive: -24.7%
O=C(NC1CCCC1)C(C1CC1)n1c(-c2cc3ccccc3[nH]2)nc2ccccc21 (stereo not drawn)		inactive: -25.9%
COC(=O)CN(C#N)c1nc(NC(C)C)nc(NC(C)C)n1		inactive: -3.59%
Cc1ccnc(NC(=O)C2CCC(CNc3c(N4CCCC4)c(=O)c3=O)CC2)c1 (stereo not drawn)	inconclusive: 29.1 µM [cytotoxic, single point]	
Cc1ccc(-n2nc(C)c(C(=O)NCCCN3CCN(c4ccc(F)cc4)CC3)c2-n2cccc2)cc1	active: 14.6 µM	
Cc1cnn(C(=S)NCc2ccco2)c1	inconclusive: 18.4 µM [cytotoxic, partial curve]	
CCN(CC)CCOC(=O)c1ccc(NC(=O)Cn2ncc3c([nH]c4ccc(C)cc43)c2=O)cc1	inconclusive: 29.1 µM [cytotoxic, single point]	
COC(=O)c1c(C)[nH]c(C(=O)OCC(=O)c2c(N)n(CC(C)C)c(=O)n(C)c2=O)c1C	inconclusive: 7.31 µM [cytotoxic, partial curve, poor fit]	
Cc1ccc(S(=O)(=O)N(Cc2cc3cccc(C)c3[nH]c2=O)c2ccccc2)cc1	inconclusive: 29.1 µM [cytotoxic, single point]	
COc1cc(C(=O)NCC(c2cccs2)N2CCOCC2)cc(Br)c1OCc1ccccc1 (stereo not drawn)	inconclusive: 23.1 µM [cytotoxic, single point]	
COc1ccccc1N(CC(=O)N1CCCC1)S(=O)(=O)c1ccc(C)cc1	inconclusive: 0.0731 µM [rising, full curve, poor fit]	
CC1CCN(CCc2nc3cc(NC(=O)COc4ccc([N+](=O)[O-])cc4)ccc3n2C)CC1	inconclusive: 25.9 µM [cytotoxic, partial curve, poor fit]	
COc1cc(/C=N/NC(=O)c2cncc(Br)c2)cc([N+](=O)[O-])c1O	inconclusive: 18.4 µM [cytotoxic, single point]	
